In this assay the target is T1, Myc-TRIM11 (human) (UniProt Q96F44).
T1 sequence: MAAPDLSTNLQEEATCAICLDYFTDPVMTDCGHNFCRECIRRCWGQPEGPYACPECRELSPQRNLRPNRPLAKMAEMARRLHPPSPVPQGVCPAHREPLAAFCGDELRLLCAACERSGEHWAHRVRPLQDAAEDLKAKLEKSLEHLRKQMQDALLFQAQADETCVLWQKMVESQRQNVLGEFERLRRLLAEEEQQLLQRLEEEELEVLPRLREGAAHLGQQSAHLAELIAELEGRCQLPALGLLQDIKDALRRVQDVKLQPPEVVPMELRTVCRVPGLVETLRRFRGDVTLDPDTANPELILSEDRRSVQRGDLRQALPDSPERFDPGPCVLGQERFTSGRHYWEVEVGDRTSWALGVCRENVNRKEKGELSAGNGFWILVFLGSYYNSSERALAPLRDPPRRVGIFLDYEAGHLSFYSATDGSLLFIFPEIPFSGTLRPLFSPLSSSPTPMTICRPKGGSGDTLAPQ
The assay can be described thus: co-IP; HEK293 cells cotransfected with TRIM11-Myc, Vpr-Flag and VprBP-HA vectors; lysates 24 h after transfection; protein G agarose with 1 ug control mouse IgG, anti-Myc or anti-HA MAb, overnight at 4°C; immunoblotting.

Amino acid sequences for entries named in this document (tags omitted).
UniProt Q9Y4B6: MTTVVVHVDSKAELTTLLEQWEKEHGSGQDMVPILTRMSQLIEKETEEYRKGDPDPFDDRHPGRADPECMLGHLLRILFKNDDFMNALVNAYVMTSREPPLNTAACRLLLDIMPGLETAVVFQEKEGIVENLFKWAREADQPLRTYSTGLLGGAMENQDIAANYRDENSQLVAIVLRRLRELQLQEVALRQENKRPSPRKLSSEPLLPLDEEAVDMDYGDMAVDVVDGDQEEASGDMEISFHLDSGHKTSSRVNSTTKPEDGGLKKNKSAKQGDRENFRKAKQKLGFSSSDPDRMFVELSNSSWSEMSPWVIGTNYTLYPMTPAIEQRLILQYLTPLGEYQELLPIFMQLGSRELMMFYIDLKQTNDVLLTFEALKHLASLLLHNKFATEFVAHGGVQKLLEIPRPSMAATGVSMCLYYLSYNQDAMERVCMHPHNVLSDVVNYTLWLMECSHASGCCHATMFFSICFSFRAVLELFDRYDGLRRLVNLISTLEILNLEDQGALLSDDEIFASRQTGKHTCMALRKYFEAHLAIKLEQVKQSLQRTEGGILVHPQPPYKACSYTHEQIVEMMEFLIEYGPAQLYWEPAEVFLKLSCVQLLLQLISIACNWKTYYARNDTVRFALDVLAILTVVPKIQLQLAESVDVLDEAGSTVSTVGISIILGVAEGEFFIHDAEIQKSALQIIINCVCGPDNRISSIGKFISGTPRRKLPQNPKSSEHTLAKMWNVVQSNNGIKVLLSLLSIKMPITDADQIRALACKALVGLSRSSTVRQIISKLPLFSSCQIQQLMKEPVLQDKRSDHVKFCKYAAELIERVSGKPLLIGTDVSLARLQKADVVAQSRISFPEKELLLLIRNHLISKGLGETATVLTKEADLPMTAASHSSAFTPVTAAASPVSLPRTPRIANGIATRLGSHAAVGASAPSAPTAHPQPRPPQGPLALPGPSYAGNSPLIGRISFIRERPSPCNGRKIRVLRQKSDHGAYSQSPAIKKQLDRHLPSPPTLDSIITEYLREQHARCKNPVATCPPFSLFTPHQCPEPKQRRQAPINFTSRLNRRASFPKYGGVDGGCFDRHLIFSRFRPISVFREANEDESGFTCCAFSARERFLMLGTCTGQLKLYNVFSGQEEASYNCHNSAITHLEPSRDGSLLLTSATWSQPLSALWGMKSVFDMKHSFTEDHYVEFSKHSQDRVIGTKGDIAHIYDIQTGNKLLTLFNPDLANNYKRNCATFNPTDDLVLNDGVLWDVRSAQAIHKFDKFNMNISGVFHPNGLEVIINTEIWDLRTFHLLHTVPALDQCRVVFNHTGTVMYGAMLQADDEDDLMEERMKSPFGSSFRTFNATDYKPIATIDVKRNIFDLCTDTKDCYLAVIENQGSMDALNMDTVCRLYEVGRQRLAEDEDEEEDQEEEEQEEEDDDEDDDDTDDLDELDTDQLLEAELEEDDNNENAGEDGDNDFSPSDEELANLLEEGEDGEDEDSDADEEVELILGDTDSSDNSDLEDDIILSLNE

No constants are given. Whether binding was seen depends on the method and setting. Binding seen in cells or lysates may run through a third protein. Where a sequence is shown, tags or fusion partners need not be part of it.

For VprBP-HA (from UniProt Q9Y4B6 1-1507), the binding entry is “no binding”.

(Values after paper PMC4126725.)
